Data reported in PubChem BioAssay AID493014 (National Center for Advancing Translational Sciences (NCATS), 2011).
About 170 (0.05%) of roughly 340,000 compounds were called active. The inconclusive results got no clear call from the source; some entries with a clear call stand among them for comparison. Calls come from the whole dose curve; as a rule, active = well fitted inhibition curve with a large enough effect in the signal ratio, with a control signal flat (not every such curve was filed as active); inconclusive = small, poorly fitted or top-dose-only effect, or effect the other way, or a change in a side signal; inactive = flat fitted curve, though single readings scatter; the % refers to the signal ratio. Potencies of inconclusive entries are doubtful fits and often do not repeat.

Assay: qHTS Assay to Find Inhibitors of Chronic Active B-Cell Receptor Signaling;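 for activity change, negative = inhibition: plate controls were basal doxycycline-induced cells for no effect and cells given 10 µM MG132 for full effect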
Conditions: ABC-DLBCL IkBa-CBG/CBR reporter, luminescence ratio (green luciferase fused to IkBa over red control in TMD8 lymphoma cells), 4 h; activity change, negative = inhibition: at 46.1 µM (top of the series) unless noted
Procedure, shortened: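 TMD8 human ABC-DLBCL cells with doxycycline-inducible IκBα–green luciferase fusion and unfused red luciferase, in 0.5% FBS medium; compounds up to 46 uM, 4 h at 37C. Green/red luminescence ratio, filter-overlap corrected, fitted to concentration-response curves.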
Potency is the fitted concentration of half-maximal effect.

Structure (SMILES) | Potency | activity change, negative = inhibition
Cc1cccc(-n2nnc(C(=O)NCc3ccco3)c2N)c1 | inconclusive: 35.5 µM [falling, single point] | 
CCOc1ccc(C2C(C(C)=O)=C(O)C(=O)N2CCc2c[nH]c3ccccc23)cc1 (stereo not drawn) |  | inconclusive: -9.83%
COc1cc(OC)cc(C(=O)Nc2cccc(C(C)=O)c2)c1 | inconclusive: 2.91 µM [falling, partial curve, poor fit] | 
O=C(C#Cc1ccccc1)Nc1ccc(F)cc1 | inconclusive: 35.5 µM [falling, partial curve] | 
CCOC(=O)c1[nH]cnc1C(=O)N1CCC(C)CC1 |  | inconclusive: 1.15%
COc1ccc(N(CC(=O)N2CCN(C)CC2)S(C)(=O)=O)cc1OC |  | inconclusive: 3.99%
C=CC[C@@H](Cc1ccc(F)cc1)C(=O)OC[C@@H]1CCCN1C(=O)[C@@H](CC=C)CC(=O)N[C@H](CO)Cc1ccccc1 |  | inconclusive: -10.9%
O=C(O)c1ccc(Nc2ncnc3scc(-c4ccccc4)c23)cc1 | inconclusive: 1.26 µM [falling, partial curve, poor fit] | 
COc1ccc(O)c(C(=O)c2cnc3c(c2)c(C)nn3C)c1 | inconclusive: 22.4 µM [falling, single point] | 
O=C(CN1CCc2ccccc21)NCc1ccccc1Cl | inconclusive: 23.1 µM [falling, partial curve] | 
O=C(c1cc(-c2ccccc2Cl)nc2ccccc12)N1CCOCC1 |  | inconclusive: -5.55%
CCCN1CCN(S(=O)(=O)c2c(C)[nH]c(C)c2C(=O)N2CCCCC2)CC1 |  | inactive: 2.72%
CN(Cc1ccccc1)S(=O)(=O)c1cccs1 |  | inconclusive: 6.11%
Cc1cc(C)cc(-n2ncc3c2CCCC3NC(=O)c2cc(C)n(C)n2)c1 (stereo not drawn) | inconclusive: 20 µM [falling, partial curve, poor fit] | 
COC(=O)c1cc2n(n1)CCN(Cc1ccccc1Cl)C2=O |  | inconclusive: -0.845%
COc1cc2cnc(-c3ccsc3)cc2cc1OC |  | inconclusive: -7.14%
Cc1cccc(NC(=O)CNC(=O)CSc2nc(N)cc(N)n2)c1C |  | inactive: -2.89%
O=c1[nH]c2cc([N+](=O)[O-])c(NCCO)c([N+](=O)[O-])c2[nH]1 |  | inconclusive: 4.98%
COc1ccc(-c2nnc3sc(-c4ccccc4OC)nn23)cc1 |  | inconclusive: 3.92%
C=CCn1cnnc1SCC(=O)N(C)CC1COc2ccccc2O1 (stereo not drawn) |  | inconclusive: -1.02%
CN(C)S(=O)(=O)N(CC(=O)Nc1ccc2ccccc2c1)c1ccccc1 |  | inconclusive: 22.8%
Cc1c(N=Cc2cc(Br)cc(Br)c2O)cccc1C(=O)O |  | inactive: 6.79%
C=CCNC(=S)N/N=C/c1ccc(C)c([N+](=O)[O-])c1 |  | inconclusive: -2.71%
COc1ccc(OC)c(NC(=O)CSc2ncccc2C(=O)O)c1 |  | inconclusive: -29.3%
Cc1noc2ncnc(N3CCCC3)c12 |  | inactive: 0.0244%
COc1ccccc1CNC(=O)/C=C/c1cc2c(cc1Br)OCO2 |  | inconclusive: -3.05%
C=CCc1cccc(/C=N/NC(=O)CNc2ccccc2OC)c1O | inconclusive: 35.5 µM [falling, single point] | 

Random excerpt: 3 compounds from above, in no set order.
Structure (SMILES) | Potency | activity change, negative = inhibition
CCCN1CCN(S(=O)(=O)c2c(C)[nH]c(C)c2C(=O)N2CCCCC2)CC1 |  | inactive: 2.72%
O=C(CN1CCc2ccccc21)NCc1ccccc1Cl | inconclusive: 23.1 µM [falling, partial curve] | 
O=C(O)c1ccc(Nc2ncnc3scc(-c4ccccc4)c23)cc1 | inconclusive: 1.26 µM [falling, partial curve, poor fit] | 

Additional compounds:

Structure (SMILES) | Potency | activity change, negative = inhibition
Cc1nc(N2CCN(Cc3nc4ccccc4[nH]3)CC2)c2oc3ccccc3c2n1 |  | inconclusive: -2.3%
COc1ccc(NC(=O)C(Sc2nnc3ccccn23)c2ccccc2)cc1Cl (stereo not drawn) | inconclusive: 14.6 µM [falling, single point] | 
COCC(=O)Nc1ccc(F)cc1 |  | inconclusive: -24.1%
COc1ccc(-c2csc(NC(=O)c3ccccc3OC)c2C(=O)O)cc1OC |  | inconclusive: -4.04%
CN(C)CCCNc1c2ccccc2nc2ccccc12 |  | inconclusive: 12.9%
CCOC(=O)C1(Cc2cccc(OC)c2)CCN(C/C=C/c2ccccc2)CC1 |  | inconclusive: -1.29%
Cc1ccc(CN(C)C(=O)CN2C(=O)NC3(CCCc4ccccc43)C2=O)c(C)c1 (stereo not drawn) |  | inconclusive: -0.379%
O=C(COC(=O)/C=C/c1ccc(F)cc1)Nc1ccc2[nH]c(=O)[nH]c2c1 |  | inactive: -0.328%
O=C(c1ccco1)n1nc(NCc2ccccc2)nc1NCc1ccccc1 |  | inconclusive: 4.56%
CC(C)Cn1c2ccccc2c2cc(C(=O)O)ccc21 |  | inconclusive: 6.71%
COc1ccc(CC(C)Nc2ccccc2F)cc1 (stereo not drawn) |  | inconclusive: 8.51%
CCc1c(-c2ccccc2)nc2sc3c(c2c1N)CCCC3 |  | inconclusive: -4.33%
Oc1ccc(C2CNCc3sccc32)cc1O (stereo not drawn) | inconclusive: 29.1 µM [falling, single point] | 
O=C1C(Nc2cccc(O)c2)=C(N2CCCCC2)C(=O)c2ccccc21 |  | inconclusive: -1.17%
COc1cc2ccccc2cc1C(=O)Nc1ccc(C)cc1 | inconclusive: 35.5 µM [falling, single point] | 
Cc1ccc(NC(=O)CN(c2ccc(Cl)cc2)S(=O)(=O)c2cc([N+](=O)[O-])ccc2Cl)c(C)c1 |  | inconclusive: 0.595%
CCCn1c(=O)[nH]c(=O)c2c1nc(-c1ccc(OC(F)F)cc1)n2CCN1CCOCC1 |  | inconclusive: 6.62%
COC(=O)c1sccc1N/C=C(\C#N)S(=O)(=O)C(C)(C)C |  | inconclusive: 8.84%
Cc1cccc(COc2ccc(/C=N/NC(=O)c3nnn(-c4nonc4N)c3C)cc2)c1 |  | inactive: 2.75%
CCC(=O)c1ccc(OCC(O)Cn2nnc3ccccc32)cc1 (stereo not drawn) | inconclusive: 14.1 µM [falling, single point] | 
Cn1c2c(c(=O)c3ccccc31)CCC(C)(C)O2 |  | inconclusive: 5.12%
CC(C)c1ccc(NC(=O)c2cc(S(=O)(=O)NCCc3ccccc3)ccc2F)cc1 |  | inconclusive: -2.21%
O=C(CCCn1c(=O)c2ccccc2n(CC(=O)NCc2ccco2)c1=O)NCc1ccco1 |  | inconclusive: 2.88%
COc1cc(C2CC(=O)N3CN(c4ccccc4C)CSC3=C2C#N)cc(OC)c1OC (stereo not drawn) |  | inactive: -6%
CCn1c(SCc2ccccc2)nnc1-c1cccs1 |  | inconclusive: 15.2%
O=C1Cc2cc(S(=O)(=O)Nc3cccc(C(F)(F)F)c3)cc3c2N1CCC3 |  | inconclusive: 13.2%
